Laboratory results: patent US20250017964A1, “ENGINEERING OR INDUCING PDGF AND/OR PDGFR SIGNALING TO ENHANCE NK CELL THERAPY” (City of Hope, priority 2021, published 2025)
At least one structure is not confirmed: it was looked up by name or label, or the drawing left a doubt.

Test system: IL-15-induced PDGFRβ expression
Assay: Inhibition assay: IL-15-induced PDGFRβ expression after inhibitor pretreatment, flow cytometry
Type: cell-based, human
Conditions: inhibitor 10 μM pretreatment 1 h, washed, IL-15 10 ng/ml 24 h
Protocol: FIGS. 2A-2I. […] (A-B) Primary NK cells were treated with IL-15 (10 ng/ml) for the indicated times. mRNA levels of PDGFRB at different time points (A) (n=3) or at 1 h (B) (n=10) were examined by qPCR. (C-D) Primary NK cells were pretreated with actinomycin D (ActD, 5., g/ml) (C) or cycloheximide (CHX, 20 μg/ml) (D) for 1 h, washed twice with RPMI-1640, and then treated with IL-15 (10 ng/ml) for 24 h. DMSO was used as a control. Expression levels of PDGFRβ were examined by flow cytometry (n=5). […] (E) Primary NK cells were pretreated with wortmannin (1 μM), afuresertib (10 μM), TPCA-1 (1 μM), rapamycin (10 μM), torin1 (10 μM), decernotinib (10 μM), C118-9 (10 μM), STAT5-IN-1 (10 μM), AZD6244 (10 μM), or CI-1040 (10 μM) for 1 h, washed twice with RPMI 1640, and then treated with IL-15 (10 ng/ml) for 24 h. DMSO was used as control. Data shown are % of inhibition (n=5). The mean value of the inhibitory rate is shown. […] (G-I) Binding of p65 to the PDGFRB promoter in IL-15-treated NK cells (G) or resting NK cells (H) as determined by ChIP-qPCR or PCR (I) (n=3). Data represent three independent experiments. […]
FIGS. 8A-8E. […] The ratios of p-p65 to actin were calculated using ImageJ (n=3). […]
Cells were stained with the indicated cell-surface markers and/or fixed/permeabilized using a Fixation/Permeabilization Kit (eBioscience). […] Data were analyzed using NovoExpress software (Agilent Technologies).

## CO[C@H]1C[C@@H]2CC[C@@H](C)[C@@](O)(O2)C(=O)C(=O)N2CCCC[C@H]2C(=O)O[C@H]([C@H](C)C[C@@H]2CC[C@@H](O)[C@H](OC)C2)CC(=O)[C@H](C)/C=C(\C)[C@@H](O)[C@@H](OC)C(=O)[C@H](C)C[C@H](C)/C=C/C=C/C=C/1C [rapamycin]
  effect on IL-15-induced PDGFRβ expression: dramatically and significantly blocked
